Results are given in words; binding and its absence hold for the method and conditions named. In cells and extracts the contact can be indirect. Here binding means that the protein was enriched with, or labelled near, the bait; the list need not be complete.
Target: T1, ΔNp73α-TAP (UniProt O15350)
T1 sequence: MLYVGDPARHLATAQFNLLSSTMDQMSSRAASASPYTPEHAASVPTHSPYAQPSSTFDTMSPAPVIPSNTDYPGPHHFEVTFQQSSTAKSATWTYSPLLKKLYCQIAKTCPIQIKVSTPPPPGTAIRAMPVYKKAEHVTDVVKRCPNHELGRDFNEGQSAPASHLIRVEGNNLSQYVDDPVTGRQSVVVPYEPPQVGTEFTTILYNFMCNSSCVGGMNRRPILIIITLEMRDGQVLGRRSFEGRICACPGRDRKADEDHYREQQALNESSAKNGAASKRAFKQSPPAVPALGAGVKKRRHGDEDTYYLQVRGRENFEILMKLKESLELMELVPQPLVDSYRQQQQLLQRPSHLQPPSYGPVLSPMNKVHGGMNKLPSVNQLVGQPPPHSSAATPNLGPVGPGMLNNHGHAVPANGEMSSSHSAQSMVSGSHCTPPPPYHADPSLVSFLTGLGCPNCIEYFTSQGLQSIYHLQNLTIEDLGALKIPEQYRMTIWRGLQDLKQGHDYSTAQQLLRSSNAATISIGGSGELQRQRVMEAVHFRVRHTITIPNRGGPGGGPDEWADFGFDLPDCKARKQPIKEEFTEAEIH
Test: affinity purification with mass spectrometry

Sequences of proteins named here, by UniProt entry; tags and fusion partners are left off.
UniProt Q16254: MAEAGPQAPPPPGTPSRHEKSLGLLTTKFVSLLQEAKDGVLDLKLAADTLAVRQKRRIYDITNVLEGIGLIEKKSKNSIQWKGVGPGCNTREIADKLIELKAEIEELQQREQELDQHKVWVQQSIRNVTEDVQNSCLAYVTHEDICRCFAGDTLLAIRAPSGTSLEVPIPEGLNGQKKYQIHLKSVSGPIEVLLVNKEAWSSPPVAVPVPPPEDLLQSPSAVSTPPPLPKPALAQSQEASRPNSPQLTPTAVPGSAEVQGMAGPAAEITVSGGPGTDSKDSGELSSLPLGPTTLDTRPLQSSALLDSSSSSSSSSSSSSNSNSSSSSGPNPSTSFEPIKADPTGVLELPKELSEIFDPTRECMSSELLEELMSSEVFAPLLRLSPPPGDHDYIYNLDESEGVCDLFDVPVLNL

endogenous E2F4 (38HK) (from UniProt Q16254 1-413)
binding: binds

Source: article doi:10.1101/2022.10.27.514150
